# Measurements as given in PubChem BioAssay AID2685 (National Center for Advancing Translational Sciences (NCATS), 2010).
# Among all 320,000 compounds or so, about 2,100 (0.66%) were called active. The shares of active, inactive and inconclusive entries below differ from those in the screen. Calls come from the whole dose curve; as a rule, active = well fitted inhibition curve with a large enough effect in the signal ratio, with a control signal flat (not every such curve was filed as active); inconclusive = small, poorly fitted or top-dose-only effect, or effect the other way, or a change in a side signal; inactive = flat fitted curve, though single readings scatter; the % refers to the signal ratio. Where the call is inconclusive, the potency comes from a doubtful curve fit.
# Assay: qHTS Assay for Lipid Storage Modulators in Drosophila S3 Cells
# Conditions: BODIPY lipid droplet fluorescence, 18-24 h, cells fed with added oleic acid; lipid storage change, negative = inhibition: at 46.1 µM (top of the series) unless noted
# Summary of the method: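 Drosophila S3 cells got compounds at several concentrations plus oleic acid (400 uM solution). Laser-scanning cytometry with 488 nm excitation read lipid droplets at 500-530 nm and cells at 575-640 nm. Percent activity was relative to 20 uM Triacsin C.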
# % is set by controls: 0 for no effect and ±100 for the full control effect; potency is the fitted concentration of half-maximal effect.
Compound,Potency,"lipid storage change, negative = inhibition",outcome
Cc1ccc2nc(-c3ccncc3)c(Nc3ccccc3)n2c1,"inconclusive: 3.66 µM [activator, single point]",,
Cc1nnsc1S(=O)(=O)c1ccccc1,,inconclusive: 18.3%,
CC(=NCCN1CCOCC1)C1=C(O)c2ccccc2C1=O,,inconclusive: 46.6%,
COc1ccc(Cl)cc1Nc1nc(C)nc2c1nnn2Cc1ccccc1,,inconclusive: 4.29%,
COC(=O)c1sc2cc(C(F)(F)F)cnc2c1-c1ccccc1,,inconclusive: 41%,
COc1ccc(NC(=O)COC(=O)c2ccc(OCc3ccccc3Cl)c(OC)c2)c(OC)c1,"inconclusive: 1.16 µM [activator, full curve]",,
COc1ccc2c3c(cccc13)N(C)N=C2C,,inconclusive: 9.13%,
CCSc1nnc(NS(=O)(=O)c2ccc(C)cc2)s1,"inconclusive: 0.164 µM [activator, full curve, poor fit]",,
CCOC(=O)Nc1ccccc1C(=O)Nc1cc(C)cc(C)c1,,inconclusive: -7.23%,
O=C(N/N=C/c1ccco1)c1ccccn1,,inconclusive: 14.1%,
O=C(OCC(=O)N1CCCCC1)c1cc2ccccc2cc1O,,inconclusive: 32.8%,
O=P(COCCOCP(=O)(c1ccccc1)c1ccccc1)(c1ccccc1)c1ccccc1,,inconclusive: 0.482%,
COc1cccc(Oc2cnc(N)nc2-c2ccc(OC)cc2O)c1,"inconclusive: 0.731 µM [activator, full curve, poor fit]",,
N#Cc1c(-c2ccccc2Cl)cc(-c2ccccc2)nc1Br,"inconclusive: 29.1 µM [falling, single point]",,
O=C(CN1CCCC1)Nc1nc(-c2ccc3c(c2)CCN3C(=O)c2ccccc2F)cs1,,inconclusive: -50%,
Cc1ccccc1-c1nc(CN2CCC(C(=O)N3CCN(c4ccccn4)CC3)CC2)c(C)o1,"inconclusive: 2.06 µM [rising, full curve, poor fit]",,
O=C(CN1CCN(C(=O)c2ccccc2)CC1)Nc1ccccc1,"inconclusive: 29.1 µM [activator, single point]",,
C=CC(C)Sc1nc2c(c(=O)n(C)c(=O)n2C)n1Cc1ccccc1Cl (stereo not given),,inconclusive: 8.75%,
Cc1ccc2c(c1)c(CC(=O)Nc1ccc(F)cc1)c(C(=O)O)n2C,,inconclusive: -5.51%,
COc1ccc(Cl)cc1S(=O)(=O)N1CCN=C1c1ccccc1,,inconclusive: 12.8%,
CN1CCN(C(=O)c2ccc(Cl)cc2)CC1,"inconclusive: 16.4 µM [activator, single point]",,
CCc1cc(=O)oc2cc(C)cc(OCC(=O)N3CCC(C(=O)O)CC3)c12,"inconclusive: 0.116 µM [falling, full curve, poor fit]",,
C=C(C)C1CC=C(C)/C(=N/NC(=O)c2ccc(NC(=O)c3cccc(C)c3)cc2)C1 (stereo not given),"inconclusive: 29.1 µM [falling, single point]",,
O=C(Nc1nccs1)c1ccc(CSc2nnnn2-c2ccccc2)cc1,,inconclusive: 5.79%,
O=C(O)/C=C/c1cn(Cc2ccccc2Cl)nc1-c1ccccc1,"inconclusive: 14.6 µM [activator, partial curve, poor fit]",,

Compound,Potency,"lipid storage change, negative = inhibition",outcome
CCC(=O)Nc1cccc(C(=O)/C=C/c2cccs2)c1,,inconclusive: -98.8%,
Cc1cc(C(=O)NNC(=O)COc2c(C)cc(Br)cc2C)n[nH]1,,inconclusive: 16.9%,
CC(C)c1cccc(-c2ccc3c(c2)S(=O)(=O)c2cccc(C(=O)O)c2C3=O)c1,"inconclusive: 0.092 µM [activator, single point]",,
CC1(C)C(=O)OC(c2c3ccccc3cc3ccccc23)C(C)(C)C1=O (stereo not given),,inconclusive: 1.09%,
CC(CC(=O)N1CCN(S(=O)(=O)c2ccc(Cl)cc2)CC1)n1cncn1 (stereo not given),,inconclusive: 36%,
COc1cc2oc(=O)ccc2cc1[C@H](O)[C@@H](O)C(C)(C)O,"inconclusive: 29.1 µM [activator, single point]",,
O=C(Cn1cc(C(F)(F)F)cc(Cl)c1=O)NCc1ccc(F)cc1,,inconclusive: 6.46%,
CCOC(=O)CC(NS(=O)(=O)Cc1ccccc1)c1ccc(C)cc1 (stereo not given),,inconclusive: 3.52%,
CCN(CCCNC(=O)C1CCN(S(=O)(=O)CC)CC1)c1ccccc1,,inconclusive: -2.3%,
COc1ccccc1/C=C/C(=O)NCC(=O)N1CCC(N(C)C2CCCC2)CC1,,inconclusive: -20.8%,
Cc1cnc(C(=O)Oc2ccc(-c3ccccc3)cc2)cn1,"inconclusive: 29.1 µM [activator, single point]",,
CCN1CCN(c2ccc(S(=O)(=O)N3CCOCC3)cc2NC(=O)c2ccccc2OC(F)F)CC1,,inconclusive,
COc1ccc(/C=C/C(=O)c2oc3ccc(F)cc3c2C)cc1,,inconclusive: 3.8%,
Cn1c(=O)c(=O)n(C)c2cc(N3CCOCC3)c(NS(=O)(=O)c3ccc(Br)cc3)cc21,,inconclusive: 123%,
CCc1ccccc1N1C(=O)CC(Sc2nccc(C)n2)C1=O (stereo not given),"inconclusive: 9.2 µM [falling, single point]",,
COc1ccc(C(=O)CC2(C(=O)O)CCCCC2)cc1,,inconclusive: 78.4%,
COc1ccc(CC(=O)Nc2cccc(/C(C)=N/NC(=O)c3cccc([N+](=O)[O-])c3)c2)cc1,,inconclusive: 77.1%,
CC(C)CCCN1C(N(C)C)=NC[C@@H]1C,,inconclusive: 98.6%,
CC(C)(C)c1cc(CN2CCN(CCO)CC2)cc(C(C)(C)C)c1O,,inconclusive: 25.8%,
COc1ccc(C(=O)NCc2nnc(SCC(=O)Nc3cccc(OC)c3)o2)cc1,,inconclusive: -38.4%,
O=C(CC(=O)c1ccccc1)Nc1cc([N+](=O)[O-])ccc1Cl,"inconclusive: 23.1 µM [falling, single point]",,
Clc1cc(Br)ccc1NCc1cccnc1,,inconclusive: -11.6%,
C=CCn1c(SCn2nnc3ccccc3c2=O)nnc1-c1ccc(F)cc1,,inconclusive: 25.7%,
CCn1nc(C)cc1C(=O)N1CCCC(C(=O)c2ccc(OC)cc2C)C1 (stereo not given),"inconclusive: 6.51 µM [activator, partial curve]",,
COC(=O)c1ccccc1NC(=O)Cn1cnc([N+](=O)[O-])c1,"inconclusive: 25.9 µM [activator, single point]",,

# For reference, part of the list above:
Compound,Potency,"lipid storage change, negative = inhibition",outcome
CC1(C)C(=O)OC(c2c3ccccc3cc3ccccc23)C(C)(C)C1=O (stereo not given),,inconclusive: 1.09%,
CC(CC(=O)N1CCN(S(=O)(=O)c2ccc(Cl)cc2)CC1)n1cncn1 (stereo not given),,inconclusive: 36%,
COc1cc2oc(=O)ccc2cc1[C@H](O)[C@@H](O)C(C)(C)O,"inconclusive: 29.1 µM [activator, single point]",,
O=C(Cn1cc(C(F)(F)F)cc(Cl)c1=O)NCc1ccc(F)cc1,,inconclusive: 6.46%,
CCOC(=O)CC(NS(=O)(=O)Cc1ccccc1)c1ccc(C)cc1 (stereo not given),,inconclusive: 3.52%,

# (more compounds)

Compound,Potency,"lipid storage change, negative = inhibition",outcome
C=CC1C(OC2OC(CO)C(O)C(O)C2O)OC=C(C(=O)OC)C1CC1CC(=O)CC(CC(=O)CCc2ccc(O)cc2)O1 (stereo not given),"inconclusive: 0.0231 µM [falling, full curve, poor fit]",,
O=C(Nc1cc(S(=O)(=O)N2CCCC2)ccc1OCC(F)(F)F)c1ccccc1F,,inconclusive: -16.3%,
N=C1/C(=C/c2cccn2CCOc2ccccc2)C(=O)N=C2SC=C(c3ccccc3)N12,"inconclusive: 4.11 µM [activator, partial curve]",,
CCSc1nnc(NC(=O)CCNS(=O)(=O)c2cc(Br)cnc2N)s1,"inconclusive: 0.651 µM [falling, partial curve]",,
CCCCCN(C(=O)NC(=O)NCCCC)S(C)(=O)=O,,inconclusive: -22.8%,
c1csc(-c2cnc3ccccc3n2)c1,,inconclusive: -45.5%,
O=C(CSc1ncccn1)N1CCN(C(=O)CSc2ncccn2)CC1,"inconclusive: 0.651 µM [falling, full curve]",,
COC(=O)c1ccc(C(=O)Nc2nc3cc(N)c(C)cc3s2)cc1,"inconclusive: 29.1 µM [falling, single point]",,
N#CC1=C(S)N=C(N)C(c2nc(-c3ccccc3)cs2)C12CCCC2 (stereo not given),"inconclusive: 25.9 µM [falling, single point]",,
COc1ccc(NC(=O)CSCC(=O)N2CCN(C(=O)c3ccco3)CC2)cc1,,inconclusive: 18.3%,
Cc1ccc(-c2c(C(=O)N/N=C/c3cccs3)nnn2-c2nonc2N)cc1,,,inactive [at 46.1 µM]
COc1ccccc1C(=O)N/C(=C\c1ccc(Br)cc1)C(=O)NCCO,"inconclusive: 0.461 µM [rising, single point]",,
COc1ccc(C(=O)CSc2nnc(CNC(=O)c3ccccc3)o2)cc1,,inconclusive: 15.4%,
COc1ccc(N2CCN(C(CNC(=O)C(=O)NCCCn3ccnc3)c3ccco3)CC2)cc1 (stereo not given),,inconclusive: 16.4%,
O=C(NC1CCN(C(=O)Nc2ccccc2Cl)CC1)c1cccc(F)c1,"inconclusive: 23.1 µM [falling, single point]",,
Cc1ccccc1-n1nnnc1SCC(=O)NNC(=O)c1ccc(NC(=O)CC#N)cc1,"inconclusive: 0.92 µM [activator, full curve]",,
CN(C)c1ccc(CN2CCCCCC2)cc1,,inconclusive: 81.9%,
Cc1cccc(NC(=O)NCc2ccc3c(c2)cc(C)n3C)c1,"inconclusive: 16.4 µM [falling, single point]",,
Oc1ccc(C[C@H]2CNCCN2CCc2cccc(F)c2)cc1,"inconclusive: 3.66 µM [activator, single point]",,
CC(/C=C\c1ccccc1)=C/C(=O)O,,inconclusive: 19.8%,
CCc1cccc(C)c1NC(=S)NCCc1c(C)[nH]c2ccc(C)cc12,,inconclusive: 24%,
Cc1ccc(S(=O)(=O)CCC(=O)Nc2ccccc2C)cc1,"inconclusive: 29.1 µM [falling, single point]",,
Cc1cc(C)cc(C(=O)N2CC(C)OC(C)C2)c1 (stereo not given),,inactive: -3.57%,
COc1ccc(CC(=O)Nc2c3c(nn2-c2cccc(C)c2C)CS(=O)C3)cc1OC (stereo not given),"inconclusive: 0.461 µM [falling, partial curve]",,
CCc1cccc(NC(=O)CN(c2ccc(OC)cc2)S(=O)(=O)c2c(C)n[nH]c2C)c1,"inconclusive: 8.2 µM [activator, partial curve]",,
